# At least one structure is not confirmed: it was looked up by name or label, or the drawing left a doubt.
# Chains of the proteins cited; added tags and fusions are not shown. Residues count along the entry.
# UniProt P21554, whole entry: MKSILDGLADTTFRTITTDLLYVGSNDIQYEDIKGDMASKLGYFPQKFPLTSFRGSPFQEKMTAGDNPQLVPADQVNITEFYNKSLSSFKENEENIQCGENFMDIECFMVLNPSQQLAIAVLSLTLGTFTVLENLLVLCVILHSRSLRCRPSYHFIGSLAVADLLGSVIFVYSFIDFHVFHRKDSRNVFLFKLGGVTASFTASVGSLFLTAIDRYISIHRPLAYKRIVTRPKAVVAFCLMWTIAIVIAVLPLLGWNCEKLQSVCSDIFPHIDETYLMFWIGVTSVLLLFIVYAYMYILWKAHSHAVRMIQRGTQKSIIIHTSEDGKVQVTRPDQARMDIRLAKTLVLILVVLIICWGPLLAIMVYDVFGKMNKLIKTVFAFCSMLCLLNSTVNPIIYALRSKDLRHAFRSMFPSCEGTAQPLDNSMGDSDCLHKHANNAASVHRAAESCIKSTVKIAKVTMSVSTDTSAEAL
# UniProt P14416, 1-414 isoform P14416-2: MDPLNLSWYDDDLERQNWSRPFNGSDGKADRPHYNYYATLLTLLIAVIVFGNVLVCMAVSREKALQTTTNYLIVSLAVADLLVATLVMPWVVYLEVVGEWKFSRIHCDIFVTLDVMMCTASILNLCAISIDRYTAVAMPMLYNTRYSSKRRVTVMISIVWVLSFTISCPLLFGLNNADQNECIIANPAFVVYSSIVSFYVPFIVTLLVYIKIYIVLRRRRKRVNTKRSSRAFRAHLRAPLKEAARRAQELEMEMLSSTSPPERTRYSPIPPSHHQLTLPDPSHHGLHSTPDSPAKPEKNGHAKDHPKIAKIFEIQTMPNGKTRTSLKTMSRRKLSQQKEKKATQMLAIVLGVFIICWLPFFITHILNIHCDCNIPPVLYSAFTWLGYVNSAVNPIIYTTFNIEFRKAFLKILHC
# Columns and labels:
# Details in all cases: compound at 10 uM
# GPR119 = molecular target: T1, GPR119 (Homo sapiens, UniProt Q8TDV5); assay: Cell-based β-arrestin reporter GPCR panel (DiscoverX) at 10 uM, GPR119
# T1 sequence (Q8TDV5 1-335): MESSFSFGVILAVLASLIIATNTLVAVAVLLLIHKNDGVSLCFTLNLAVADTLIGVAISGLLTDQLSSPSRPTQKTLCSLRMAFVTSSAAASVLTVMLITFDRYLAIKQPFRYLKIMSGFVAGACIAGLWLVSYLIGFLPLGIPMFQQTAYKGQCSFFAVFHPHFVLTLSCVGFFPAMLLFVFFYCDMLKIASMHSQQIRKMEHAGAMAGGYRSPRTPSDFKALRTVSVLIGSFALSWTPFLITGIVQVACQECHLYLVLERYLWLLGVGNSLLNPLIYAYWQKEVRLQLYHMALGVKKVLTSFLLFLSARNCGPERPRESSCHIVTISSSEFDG
# CNR1 = CNR1 (Homo sapiens, UniProt P21554); assay: Cell-based β-arrestin reporter GPCR panel (DiscoverX) at 10 uM, CNR1
# DRD2s = DRD2s (Homo sapiens, UniProt P14416); assay: Cell-based β-arrestin reporter GPCR panel (DiscoverX) at 10 uM, DRD2s
# NPSR1b = molecular target: T2, NPSR1b (Homo sapiens, UniProt Q6W5P4); assay: Cell-based β-arrestin reporter GPCR panel (DiscoverX) at 10 uM, NPSR1b
# T2 sequence (Q6W5P4 1-377 isoform Q6W5P4-4): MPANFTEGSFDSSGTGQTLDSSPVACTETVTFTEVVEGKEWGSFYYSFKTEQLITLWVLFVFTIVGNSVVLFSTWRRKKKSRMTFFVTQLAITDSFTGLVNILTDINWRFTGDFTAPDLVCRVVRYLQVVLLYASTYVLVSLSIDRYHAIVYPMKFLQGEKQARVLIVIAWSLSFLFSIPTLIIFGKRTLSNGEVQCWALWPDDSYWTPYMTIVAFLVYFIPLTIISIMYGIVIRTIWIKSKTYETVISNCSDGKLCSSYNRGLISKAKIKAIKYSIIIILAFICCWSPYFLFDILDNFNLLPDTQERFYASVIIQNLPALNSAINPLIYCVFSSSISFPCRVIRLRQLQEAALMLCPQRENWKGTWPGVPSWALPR
# Experimental: (§1) Cell-based β-arrestin reporter assay (DiscoveRx) with a panel of 168 GPCRs with known ligands in agonist mode and antagonist mode, and also 73 orphan GPCRs in agonist mode at 10 uM. Agonist mode measures % activity of target GPCR by the compound, relative to the baseline value (0% activity) and maximum value with a known ligand, or twofold increase over baseline for orphan GPCR (100% activation). Antagonist mode measures % inhibition of target GPCR by the compound in the presence of a known ligand, relative to the value at the EC80 (0% inhibition) and basal value (100% inhibition).
# (§2) FAAs are known to modulate diverse biological functions by interacting with human GPCRs. The products of the FAA screen are either known GPCR ligands or appear to structurally mimic these molecules (FIG. 30). The FAAs were analyzed for activity against a panel of known and orphan human GPCRs using the DiscoverX platform. The major compound from the four human gut metagenome-derived pathways (oleoyl dopamine, oleoyl tyramine, oleoyl aminovaleric acid, and lauroyl tryptamine) were chemically synthesized and screened at 10 uM on a panel of 168 known GPCRs covering 60 distinct receptors in both agonist and antagonist mode and 73 orphan GPCRs in agonist mode. […]
# PRLHR = molecular target: T3, PRLHR (Homo sapiens, UniProt P49683); assay: Cell-based β-arrestin reporter GPCR panel (DiscoverX) at 10 uM, PRLHR
# T3 sequence (P49683 1-370): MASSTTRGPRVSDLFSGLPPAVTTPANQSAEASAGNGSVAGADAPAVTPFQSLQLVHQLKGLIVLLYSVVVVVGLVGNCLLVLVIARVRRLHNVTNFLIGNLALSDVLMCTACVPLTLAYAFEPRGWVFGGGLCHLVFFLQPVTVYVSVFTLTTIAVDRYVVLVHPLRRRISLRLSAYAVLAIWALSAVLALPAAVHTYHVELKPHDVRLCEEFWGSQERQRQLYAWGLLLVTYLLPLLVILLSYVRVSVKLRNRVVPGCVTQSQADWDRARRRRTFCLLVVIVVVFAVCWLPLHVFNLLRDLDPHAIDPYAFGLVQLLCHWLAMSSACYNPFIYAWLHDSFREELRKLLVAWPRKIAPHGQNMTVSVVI
# Experimental: as §1, §2
structure (smiles),measurement,setting,value
CCCCCCCC/C=C\CCCCCCCC(=O)NCCc1ccc(O)c(O)c1 [oleoyl dopamine],GPR119 activity in GPCR panel,GPR119,interact
same,interaction with CNR1 in GPCR panel,CNR1,interact
same,interaction with DRD2s in GPCR panel,DRD2s,interact
same,activity on NPSR1b in GPCR panel,NPSR1b,shares activity
same,activity on PRLHR in GPCR panel,PRLHR,shares activity

# Reference: US11441162B2, “Human gut microbiome-derived biosynthetic enzymes for production of fatty acid amides” (Massachusetts Institute of Technology, priority 2019, dated 2022)
